No constants are given. Whether binding was seen depends on the method and setting. In cells and extracts the contact can be indirect. Some binding calls cover weakened binding; strength is not graded here. Where a sequence is shown, tags or fusion partners need not be part of it.
T1: TAP-tagged Mrc1 (yeast (endogenous in W303-1a)) (UniProt P25588)
T1 sequence: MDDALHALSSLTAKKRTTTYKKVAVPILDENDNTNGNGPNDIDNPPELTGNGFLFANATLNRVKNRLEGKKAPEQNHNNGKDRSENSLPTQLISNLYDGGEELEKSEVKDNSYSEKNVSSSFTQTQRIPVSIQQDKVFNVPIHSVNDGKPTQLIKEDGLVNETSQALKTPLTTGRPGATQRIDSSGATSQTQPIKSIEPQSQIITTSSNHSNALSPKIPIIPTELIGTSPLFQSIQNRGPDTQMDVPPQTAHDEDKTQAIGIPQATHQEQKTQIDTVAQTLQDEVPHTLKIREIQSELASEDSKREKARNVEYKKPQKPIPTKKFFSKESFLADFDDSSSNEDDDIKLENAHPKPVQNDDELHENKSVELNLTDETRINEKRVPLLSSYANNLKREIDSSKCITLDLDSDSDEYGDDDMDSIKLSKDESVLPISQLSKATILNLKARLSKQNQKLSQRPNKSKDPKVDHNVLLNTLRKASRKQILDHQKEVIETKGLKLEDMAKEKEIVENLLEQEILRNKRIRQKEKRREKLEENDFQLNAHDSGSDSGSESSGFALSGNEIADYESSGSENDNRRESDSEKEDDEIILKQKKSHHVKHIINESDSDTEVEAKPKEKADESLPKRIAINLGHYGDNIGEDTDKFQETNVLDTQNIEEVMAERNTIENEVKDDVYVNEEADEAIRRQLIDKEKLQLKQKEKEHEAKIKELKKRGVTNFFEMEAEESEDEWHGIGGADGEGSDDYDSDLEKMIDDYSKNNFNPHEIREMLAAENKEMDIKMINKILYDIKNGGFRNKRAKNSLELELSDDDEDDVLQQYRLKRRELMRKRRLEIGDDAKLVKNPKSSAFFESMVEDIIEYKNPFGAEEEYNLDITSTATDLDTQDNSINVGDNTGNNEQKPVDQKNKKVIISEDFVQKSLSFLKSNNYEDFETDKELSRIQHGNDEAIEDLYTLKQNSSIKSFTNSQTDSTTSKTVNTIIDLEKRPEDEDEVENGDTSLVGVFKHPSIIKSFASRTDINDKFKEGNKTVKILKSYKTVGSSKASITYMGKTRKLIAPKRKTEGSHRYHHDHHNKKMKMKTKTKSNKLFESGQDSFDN

T2: HA-tagged Snf1 (yeast (endogenous in W303-1a)) (UniProt P06782)
T2 sequence: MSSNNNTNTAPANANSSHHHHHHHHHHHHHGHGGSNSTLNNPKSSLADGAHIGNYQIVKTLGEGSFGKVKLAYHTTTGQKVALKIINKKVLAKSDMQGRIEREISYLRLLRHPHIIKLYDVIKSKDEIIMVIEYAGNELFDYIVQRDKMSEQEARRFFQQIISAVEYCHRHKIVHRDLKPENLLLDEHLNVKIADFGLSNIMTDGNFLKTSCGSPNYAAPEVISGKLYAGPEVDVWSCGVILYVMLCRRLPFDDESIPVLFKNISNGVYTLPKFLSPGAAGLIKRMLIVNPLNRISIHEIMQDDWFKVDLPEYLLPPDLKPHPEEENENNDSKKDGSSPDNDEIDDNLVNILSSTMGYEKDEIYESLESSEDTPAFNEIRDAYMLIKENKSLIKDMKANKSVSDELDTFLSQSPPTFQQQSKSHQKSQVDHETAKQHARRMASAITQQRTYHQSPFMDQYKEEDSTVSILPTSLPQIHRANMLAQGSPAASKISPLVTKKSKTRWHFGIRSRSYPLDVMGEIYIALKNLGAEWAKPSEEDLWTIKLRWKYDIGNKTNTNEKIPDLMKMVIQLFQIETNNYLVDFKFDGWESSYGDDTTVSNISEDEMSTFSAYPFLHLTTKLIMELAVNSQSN


Columns and labels:
[1] = target: T1, TAP-tagged Mrc1 (yeast (endogenous in W303-1a)); assay: co-IP; Mrc1–TAP precipitated from yeast whole-cell extract with rabbit IgG–agarose overnight at 4 °C; lysis buffer 45 mM Hepes-KOH pH 7.2, 150 mM NaCl, 1 mM EDTA, 10% glycerol, 1% Triton X-100; beads washed 10 times; partner detected by western blotting
[2] = target: T2, HA-tagged Snf1 (yeast (endogenous in W303-1a)); assay: co-IP; HA–Snf1 precipitated from yeast whole-cell extract with anti-HA antibody (12CA5) and protein G matrix; lysis buffer 45 mM Hepes-KOH pH 7.2, 150 mM NaCl, 1 mM EDTA, 10% glycerol, 1% Triton X-100; beads washed 10 times; Mrc1–TAP detected by western blotting with anti-PAP

binding [2]	Binder	binding [1]
–	Myc-tagged Mpk1 (enzyme, UniProt Q00772 1-484) MADKIERHTFKVFNQDFSVDKRFQLIKEIGHGAYGIVCSARFAEAAEDTTVAIKKVTNVFSKTLLCKRSLRELKLLRHFRGHKNITCLYDMDIVFYPDGSINGLYLYEELMECDMHQIIKSGQPLTDAHYQSFTYQILCGLKYIHSADVLHRDLKPGNLLVNADCQLKICDFGLARGYSENPVENSQFLTEYVATRWYRAPEIMLSYQGYTKAIDVWSAGCILAEFLGGKPIFKGKDYVNQLNQILQVLGTPPDETLRRIGSKNVQDYIHQLGFIPKVPFVNLYPNANSQALDLLEQMLAFDPQKRITVDEALEHPYLSIWHDPADEPVCSEKFEFSFESVNDMEDLKQMVIQEVQDFRLFVRQPLLEEQRQLQLQQQQQQQQQQQQQQQQPSDVDNGNAAASEENYPKQMATSNSVAPQQESFGIHSQNLPRHDADFPPRPQESMMEMRPATGNTADIPPQNDNGTLLDLEKELEFGLDRKYF	binds
binds	TAP-tagged Mrc1 (protein, UniProt P25588 1-1096) MDDALHALSSLTAKKRTTTYKKVAVPILDENDNTNGNGPNDIDNPPELTGNGFLFANATLNRVKNRLEGKKAPEQNHNNGKDRSENSLPTQLISNLYDGGEELEKSEVKDNSYSEKNVSSSFTQTQRIPVSIQQDKVFNVPIHSVNDGKPTQLIKEDGLVNETSQALKTPLTTGRPGATQRIDSSGATSQTQPIKSIEPQSQIITTSSNHSNALSPKIPIIPTELIGTSPLFQSIQNRGPDTQMDVPPQTAHDEDKTQAIGIPQATHQEQKTQIDTVAQTLQDEVPHTLKIREIQSELASEDSKREKARNVEYKKPQKPIPTKKFFSKESFLADFDDSSSNEDDDIKLENAHPKPVQNDDELHENKSVELNLTDETRINEKRVPLLSSYANNLKREIDSSKCITLDLDSDSDEYGDDDMDSIKLSKDESVLPISQLSKATILNLKARLSKQNQKLSQRPNKSKDPKVDHNVLLNTLRKASRKQILDHQKEVIETKGLKLEDMAKEKEIVENLLEQEILRNKRIRQKEKRREKLEENDFQLNAHDSGSDSGSESSGFALSGNEIADYESSGSENDNRRESDSEKEDDEIILKQKKSHHVKHIINESDSDTEVEAKPKEKADESLPKRIAINLGHYGDNIGEDTDKFQETNVLDTQNIEEVMAERNTIENEVKDDVYVNEEADEAIRRQLIDKEKLQLKQKEKEHEAKIKELKKRGVTNFFEMEAEESEDEWHGIGGADGEGSDDYDSDLEKMIDDYSKNNFNPHEIREMLAAENKEMDIKMINKILYDIKNGGFRNKRAKNSLELELSDDDEDDVLQQYRLKRRELMRKRRLEIGDDAKLVKNPKSSAFFESMVEDIIEYKNPFGAEEEYNLDITSTATDLDTQDNSINVGDNTGNNEQKPVDQKNKKVIISEDFVQKSLSFLKSNNYEDFETDKELSRIQHGNDEAIEDLYTLKQNSSIKSFTNSQTDSTTSKTVNTIIDLEKRPEDEDEVENGDTSLVGVFKHPSIIKSFASRTDINDKFKEGNKTVKILKSYKTVGSSKASITYMGKTRKLIAPKRKTEGSHRYHHDHHNKKMKMKTKTKSNKLFESGQDSFDN	–
–	HA-tagged Psk1 (enzyme, UniProt P31374 1-1356) MPYIGASNLSEHSFVNLKEKHAITHKGTSSSVASLQTPPSPDQENHIDNELENYDTSLSDVSTPNKKEGDEFEQSLRDTFASFRKTKPPPPLDFEQPRLPSTASSSVDSTVSSPLTDEDIKELEFLPNESTHSYSYNPLSPNSLAVRLRILKRSLEIIIQNPSMLLEPTPDDLPPLKEFAGRRSSLPRTSASANHLMNRNKSQIWNTTSATLNAFVNNTSSSSAASSALSNKKPGTPVFPNLDPTHSQTFHRANSLAYLPSILPEQDPLLKHNNSLFRGDYGNNISPERPSFRQPFKDQTSNLRNSSLLNERAYQEDETFLPHHGPSMDLLNEQRANLKSLLNLLNETLEKNTSERASDLHMISLFNLNKLMLGDPKKNNSERDKRTEKLKKILLDSLAEPFFEHYNFIGDNPIADTDELKEEIDEFTGSGDTTAITDIRPQQDYGRILRTFTSTKNSAPQAIFTCSQEDPWQFRAANDLACLVFGISQNAIRALTLMDLIHTDSRNFVLHKLLSTEGQEMVFTGEIIGIVQPETLSSSKVVWASFWAKRKNGLLVCVFEKVPCDYVDVLLNLDDFGAENIVDKCELLSDGPTLSSSSTLSLPKMASSPTGSKLEYSLERKILEKSYTKPTSTENRNGDENQLDGDSHSEPSLSSSPVRSKKSVKFANDIKDVKSISQSLAKLMDDVRNGVVFDPDDDLLPMPIKVCNHINETRYFTLNHLSYNIPCAVSSTVLEDELKLKIHSLPYQAGLFIVDSHTLDIVSSNKSILKNMFGYHFAELVGKSITEIIPSFPKFLQFINDKYPALDITLHKNKGLVLTEHFFRKIQAEIMGDRKSFYTSVGIDGLHRDGCEIKIDFQLRVMNSKVILLWVTHSRDVVFEEYNTNPSQLKMLKESELSLMSSASSSASSSKKSSSRISTGTLKDMSNLSTYEDLAHRTNKLKYEIGDDSRAHSQSTLSEQEQVPLENDKDSGEMMLADPEMKHKLELARIYSRDKSQFVKEGNFKVDENLIISKISLSPSTESLADSKSSGKGLSPLEEEKLIDENATENGLAGSPKDEDGIIMTNKRGNQPVSTFLRTPEKNIGAQKHVKKFSDFVSLQKMGEGAYGKVNLCIHKKNRYIVVIKMIFKERILVDTWVRDRKLGTIPSEIQIMATLNKKPHENILRLLDFFEDDDYYYIETPVHGETGCIDLFDLIEFKTNMTEFEAKLIFKQVVAGIKHLHDQGIVHRDIKDENVIVDSKGFVKIIDFGSAAYVKSGPFDVFVGTIDYAAPEVLGGNPYEGQPQDIWAIGILLYTVVFKENPFYNIDEILEGDLKFNNAEEVSEDCIELIKSILNRCVPKRPTIDDINNDKWLVI	binds

Reference: paper PMC5785523
